{"source": "PubChem BioAssay AID652243 (Drosophila RNAi Screening Center, 2013)", "screen": "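Fly regulators of androgen-dependent reporter output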 (primary screen)", "cells": "Drosophila S2R+ cells", "knock-down reagent": "long dsRNA against Drosophila genes", "timing": "72 h (48 h, then 24 h hormone)", "treatment": "synthetic androgen R1881 at 10 nM for 24 h", "detection": "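Firefly light from an androgen-responsive reporter and Renilla control light per well, raw and unnormalised, for each of two replicates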", "reading the numbers": "firefly reporter light: higher = more light from androgen-responsive reporter; Renilla control light: higher = more constitutive control signal (cell number, transfection)", "hit rule": "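Hit when the log firefly-to-Renilla ratio dropped or increased by a fixed fold versus the mean of GFP or LacZ controls across duplicate plates; lowering cut given as 1.5 and as 3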", "calls": "active = hit: reporter lowered or raised; inactive = no hit", "note": "In all, the deposit lists about 24,000 reagents; shown is a random part of those with a known target gene and a result. In the full data, 246 (1%) were called active. 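Plates not normalised; calls are printed but the firefly/Renilla ratio behind them is not deposited; fold cut for lowering reported inconsistently.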 Raw values vary from plate to plate and are shown uncorrected. The numbers tell different reagents against one gene apart. A plus sign joins genes that one reagent is predicted to hit. The record does not give: the amount of reagent."}
{"gene knocked down":"CG18180","dsRNA no.":1,"firefly reporter light, replicate 1":6.35e5,"firefly reporter light, replicate 2":1.75e5,"Renilla control light, replicate 1":8.11e5,"Renilla control light, replicate 2":3.82e5,"outcome":"inactive"}
{"gene knocked down":"CG18180","dsRNA no.":2,"firefly reporter light, replicate 1":8.23e5,"firefly reporter light, replicate 2":5.66e5,"Renilla control light, replicate 1":1.59e6,"Renilla control light, replicate 2":1.55e6,"outcome":"inactive"}
{"gene knocked down":"CG1246","dsRNA no.":1,"firefly reporter light, replicate 1":1.36e5,"firefly reporter light, replicate 2":84035,"Renilla control light, replicate 1":2.26e6,"Renilla control light, replicate 2":1.11e6,"outcome":"inactive"}
{"gene knocked down":"inaD","dsRNA no.":1,"firefly reporter light, replicate 1":2.17e5,"firefly reporter light, replicate 2":2.37e5,"Renilla control light, replicate 1":2.07e6,"Renilla control light, replicate 2":1.96e6,"outcome":"inactive"}
{"gene knocked down":"inaD","dsRNA no.":2,"firefly reporter light, replicate 1":3.79e5,"firefly reporter light, replicate 2":3.72e5,"Renilla control light, replicate 1":4.10e5,"Renilla control light, replicate 2":3.78e5,"outcome":"inactive"}
{"gene knocked down":"Lrrk","dsRNA no.":1,"firefly reporter light, replicate 1":3.85e5,"firefly reporter light, replicate 2":4.11e5,"Renilla control light, replicate 1":2.94e6,"Renilla control light, replicate 2":2.76e6,"outcome":"inactive"}
{"gene knocked down":"Lrrk","dsRNA no.":2,"firefly reporter light, replicate 1":6.21e5,"firefly reporter light, replicate 2":5.01e5,"Renilla control light, replicate 1":2.00e6,"Renilla control light, replicate 2":1.77e6,"outcome":"inactive"}
{"gene knocked down":"Lrrk","dsRNA no.":3,"firefly reporter light, replicate 1":2.59e5,"firefly reporter light, replicate 2":2.31e5,"Renilla control light, replicate 1":6.65e5,"Renilla control light, replicate 2":5.64e5,"outcome":"inactive"}
{"gene knocked down":"Lrrk","dsRNA no.":4,"outcome":"inactive"}
{"gene knocked down":"Lrrk","dsRNA no.":5,"outcome":"inactive"}
{"gene knocked down":"Klc","dsRNA no.":1,"firefly reporter light, replicate 1":9.45e5,"firefly reporter light, replicate 2":5.84e5,"Renilla control light, replicate 1":1.03e6,"Renilla control light, replicate 2":9.86e5,"outcome":"inactive"}
{"gene knocked down":"Klc","dsRNA no.":2,"firefly reporter light, replicate 1":4.19e5,"firefly reporter light, replicate 2":2.68e5,"Renilla control light, replicate 1":5.37e5,"Renilla control light, replicate 2":5.32e5,"outcome":"inactive"}
{"gene knocked down":"CG31910 + snoRNA:Me28S-G2743 (retired record)","dsRNA no.":1,"firefly reporter light, replicate 1":1.86e5,"firefly reporter light, replicate 2":1.24e5,"Renilla control light, replicate 1":5.74e5,"Renilla control light, replicate 2":3.50e5,"outcome":"inactive"}
{"gene knocked down":"CG9919","dsRNA no.":1,"firefly reporter light, replicate 1":5.09e5,"firefly reporter light, replicate 2":4.76e5,"Renilla control light, replicate 1":3.69e6,"Renilla control light, replicate 2":2.49e6,"outcome":"inactive"}
